# Measurements reported in PubChem BioAssay AID504834 (National Center for Advancing Translational Sciences (NCATS), 2011).
# In all, about 320,000 compounds went through this assay and about 22,000 (6.9%) were called active. The shares of active, inactive and inconclusive entries below differ from those in the screen. Calls come from the whole dose curve; as a rule, active = well fitted inhibition curve with a large enough effect; inconclusive = small, poorly fitted or top-dose-only effect, or another doubt; inactive = no such curve, though single readings can be large or run the other way. A potency beside an inconclusive call is a rough fit, not a confirmed value.
# Assay: Primary qHTS for delayed death inhibitors of the malarial parasite plastid, 96 hour incubation
# Conditions: P. falciparum luciferase reporter growth; series mostly up to 28.7 µM; activity change, negative = inhibition: at the top concentration
# How it was run: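 P. falciparum expressing integrated firefly luciferase grown in erythrocytes (2% hematocrit, 0.05% parasitemia final) with compounds for 96 hours at 37 C, 5% CO2. Growth inhibition read as loss of luminescence after adding luciferase detection reagent.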
# % is set by controls: 0 for no effect and ±100 for the full control effect; potency is the fitted concentration of half-maximal effect.
Compound,Potency,"activity change, negative = inhibition"
Oc1c(C=Nc2ccccc2Cl)[nH]c2ccccc12,"inconclusive: 18.5 µM [inhibitor, single point]",–
CCn1ccc(C(=O)Nc2ccccc2SC)n1,–,inactive: 42.3% [at 5.75 µM]
Cc1ccccc1C(OCCN(C)C)C1CCCCC1 (stereo unspecified),"inconclusive: 18.5 µM [inhibitor, single point]",–
O=C(N/N=C/c1ccc(N2CCOCC2)s1)c1ccccc1Br,"inconclusive: 18.5 µM [inhibitor, single point]",–
CCOC(=O)c1cc(-c2ccccc2)sc1NC(=O)C(C)Sc1nnc(C)s1 (stereo unspecified),"inconclusive: 11.7 µM [inhibitor, single point]",–
COc1ccc(NC(=O)C(=O)NNC(=O)c2cccs2)cc1,active: 3.7 µM,–
CC(=O)c1sc2nsc(SCCN3CCCCC3)c2c1N,"inconclusive: 18.5 µM [inhibitor, single point]",–
Cc1csc(Nc2ccc(Cl)cc2)n1,"inconclusive: 3.29 µM [inhibitor, partial curve, poor fit]",–
COc1ccc(/C=C2\SC(=S)N(CCC(=O)Nc3ccc(O)cc3)C2=O)cc1,"inconclusive: 2.33 µM [inhibitor, full curve, poor fit]",–
N/C(=N\OC(=O)COc1ccc2ccccc2c1Br)c1ccncc1,–,inactive: -13.3%
CC(CSC(=O)c1ccccc1)C(=O)N1C[C@@H](Sc2ccccc2)C[C@H]1C(=O)O (stereo partly specified),–,inactive: -0.112%
Cc1ccc(C(C)C)cc1S(=O)(=O)NCc1ccccn1,–,inactive: 2.08%
Cc1ccc(Nc2nc(-c3sc(C)nc3C)cs2)cc1,"inconclusive: 16.5 µM [inhibitor, single point]",–
CC(C)CN1CN(S(=O)(=O)c2cccs2)c2nc3ccccc3nc21,"inconclusive: 0.0026 µM [inhibitor, full curve, poor fit]",–
O=C1CC(Cc2ccccc2)C(=O)N1CCCn1ccnc1 (stereo unspecified),–,inactive: 9.66%
CCCCc1ccc(NC(=O)C(=O)NCCN2CCN(C(=O)c3ccc([N+](=O)[O-])cc3)CC2)cc1,–,inactive: 47.9%
O=C(COc1ccc(Cl)cc1)Nc1cc2c3c(c1)CC(=O)N3CCC2,"inconclusive: 4.65 µM [inhibitor, partial curve]",–
O=C(NCc1ccc(Cl)cc1)C1CCCN(c2cnccn2)C1 (stereo unspecified),–,inactive: -14.4%
Cc1cc(C)n2nc(-c3ccc(F)cc3)nc2n1,"inconclusive: 11.7 µM [inhibitor, partial curve, poor fit]",–
COc1ccc(/C=C2/Sc3ccc(C(=O)NCCN4CCCCCC4)cc3NC2=O)cc1,"inconclusive: 18.5 µM [inhibitor, single point]",–
O=C(/C=C/c1ccccc1)NCCS(=O)(=O)N1CCN(c2ccccc2F)CC1,–,inactive: -5.06%
CCn1c(SCC(=O)N2CCc3ccccc32)nnc1-c1ccncc1,–,inactive: 57.8%
CN(C(=O)CC1C(=O)NCCN1Cc1ccoc1)C1CCOCC1 (stereo unspecified),"inconclusive: 18.5 µM [inhibitor, single point]",–
Cn1nnnc1Sc1ncnc2scc(-c3ccccc3Cl)c12,active: 1.65 µM,–

Compound,Potency,"activity change, negative = inhibition"
Cc1ccc(-c2nnc(-c3cccnc3)o2)cc1,–,inactive: 108%
Cc1nnc(N/N=C\c2ccc(-c3ccccc3[N+](=O)[O-])o2)n1N,"inconclusive: 11.7 µM [inhibitor, single point]",–
CCN(c1ccccc1)S(=O)(=O)c1ccc(Cl)c(NC(=O)COC(=O)c2ccc[nH]c2=O)c1,–,inactive: 13.8%
Cc1ccc(C)c(N(C(=O)c2csnn2)C(C(=O)NC2CCCC2)c2cccnc2)c1 (stereo unspecified),–,inactive: 10.1%
COc1ccc(NC(=O)CN(c2ccccc2F)S(=O)(=O)c2ccc(C)cc2)c(OC)c1,–,inactive: 0.718%
Cc1cc(C)cc(NC(=O)Nc2ccc3c(c2)N(C)C(=O)CS3)c1,"inconclusive: 8.28 µM [inhibitor, partial curve, poor fit]",–
CCn1cc(C(=O)NCCCN(CC(C)C)CC(C)C)c(=O)c2cc(S(=O)(=O)N(C)C3CCCCC3)ccc21,"inconclusive: 18.5 µM [inhibitor, single point]",–
Cc1cc(CNC(=O)COc2ccccc2F)c2ccccc2n1,–,inactive: 35.5%
Cc1cc(NC(=O)CCC(=O)N(CC(=O)NC2CCCC2)c2cccc(F)c2)no1,"inconclusive: 14.7 µM [inhibitor, single point]",–
CCOC(=O)c1cccc(NS(=O)(=O)c2cnc[nH]2)c1,"inconclusive: 10.4 µM [inhibitor, partial curve, poor fit]",–
CC1(NC(=O)c2cccc(S(=O)(=O)N3CCN(c4ccc(F)cc4)CC3)c2)CCS(=O)(=O)C1 (stereo unspecified),"inconclusive: 5.22 µM [inhibitor, partial curve, poor fit]",–
O=S(=O)(c1ccccc1F)N1CCC(Oc2ccc(-n3cnnn3)cc2)CC1,"inconclusive: 18.5 µM [inhibitor, single point]",–
CN1CCN(C(=O)c2ccc(N(Cc3ccc(Cl)cc3)S(C)(=O)=O)cc2)CC1,"inconclusive: 0.0738 µM [inhibitor, full curve, poor fit]",–
O=C(N/N=C/c1sc(N2CCOCC2)nc1-c1ccccc1)c1ccccc1Cl,"inconclusive: 1.31 µM [inhibitor, partial curve, poor fit]",–
CCCn1c(=O)c2ccccc2n2c(SCC(=O)c3ccc(F)cc3)nnc12,"inconclusive: 20.8 µM [inhibitor, partial curve, poor fit]",–
CN1CCN(C(=O)c2cc(COc3ccc(F)cc3Cl)on2)CC1c1ccccc1 (stereo unspecified),"inconclusive: 18.5 µM [inhibitor, single point]",–
COc1ccccc1OCCCCNC(C)(C)C,–,inactive: 54.6%
COc1cccc(OC)c1C(=O)NC(C)C12CC3CC(CC(C3)C1)C2 (stereo unspecified),"inconclusive: 0.329 µM [inhibitor, full curve, poor fit]",–
CCOc1cc(C2C3=C(CCCC3=O)Nc3nc(C(=O)OC)nn32)ccc1OC (stereo unspecified),–,inactive: 69.8%
Cc1nc(NCc2ccco2)nc2c1C(=O)CC(C)C2 (stereo unspecified),"inconclusive: 0.131 µM [inhibitor, full curve, poor fit]",–
C/C=C(\C)C(=O)OC1C(C)=C2C(C1OC(=O)CCCCC)C(C)(OC(C)=O)CC(OC(=O)CCC)C1(O)C2OC(=O)C1(C)O (stereo unspecified),active: 2.94 µM,–
CCCC(=O)N=C1SC2CS(=O)(=O)CC2N1c1ccc(-c2nc3ccc(C)cc3s2)cc1 (stereo unspecified),–,inactive: 93.7%
COc1cccc(NC(=O)CN(C)C(=O)CSc2ccc3c(c2)OCCO3)c1,"inconclusive: 4.65 µM [inhibitor, partial curve]",–
CC(=O)OC(C(=O)Nc1nccs1)c1ccccc1 (stereo unspecified),–,inactive: -17.3%

Compound,Potency,"activity change, negative = inhibition"
O=C1CC(N2CCN(C/C=C/c3ccccc3)CC2)C(=O)N1CCc1ccccc1 (stereo unspecified),"inconclusive: 13.1 µM [inhibitor, single point]",–
COCC(C)n1c(SCC(=O)NNC(=O)c2ccc(F)cc2)nc2ccccc2c1=O (stereo unspecified),"inconclusive: 18.5 µM [inhibitor, single point]",–
CCC1=C(OC(=O)N(CC)CC)N2C(=O)OC(=NCCc3c[nH]c4ccccc34)[C@]2(Cc2ccccc2)[C@H]2C1=CC[C@H]1C(=O)NC(=O)[C@H]12,active: 11.7 µM,–
Cc1ccc(-c2nc(CSCC(=O)NCCN3CCN(Cc4ccccc4)CC3)c(C)o2)cc1,–,inactive: -11%
Cc1ccc(NC(=O)CN(C)C(=O)COC(=O)CCS(=O)(=O)c2ccc(C)cc2)cc1,–,inactive: -23.9%
CSCC[C@H](N)C(=O)N1CCC(C(=O)N[C@@H](C)C(=O)NCc2ccc(F)cc2)CC1,–,inactive: 33.6%
CCCOc1cccc(C2/C(=C(\O)c3ccc4c(c3)OCCO4)C(=O)C(=O)N2CCCn2ccnc2)c1 (stereo unspecified),"inconclusive: 18.5 µM [inhibitor, single point]",–
CCn1c(SCC(=O)Nc2ccc(OC)cc2)nc2nc3c(cc2c1=O)COC(C)(C)C3,"inconclusive: 10.4 µM [inhibitor, partial curve, poor fit]",–
Cc1nonc1C(=O)N/N=C/c1ccc(O)cc1,active: 0.262 µM,–
O=C(COc1ccc(S(=O)(=O)N2CCOCC2)cc1)NC1CC1,"inconclusive: 11.7 µM [inhibitor, single point]",–
O=c1oc(-c2ccccc2NS(=O)(=O)c2ccc3ccccc3c2)nc2ccccc12,active: 10.4 µM,–
O=S(=O)(Nc1ccccc1)c1ccc(-c2cnc(C3CC3)o2)cc1,"inconclusive: 14.7 µM [inhibitor, partial curve, poor fit]",–
CCOC(=O)C(CCc1ccccc1)NC1CCc2ccccc2N(CC(=O)O)C1=O (stereo unspecified),active: 12 µM,–
COc1ccc(-c2nc(-c3ccccn3)no2)cc1,–,inactive: 59.4%
CC(=O)Oc1ccc2c(=O)c(/C=N/c3cc(=O)[nH]c(=S)[nH]3)coc2c1,"inconclusive: 11.7 µM [inhibitor, single point]",–
CC1(c2ccc3ccccc3c2)NC(=O)N(CC(N)=O)C1=O (stereo unspecified),–,inactive: 22%
COC(=O)CNc1nc(Cl)nc(N2CCC(C)CC2)n1,–,inactive: 9.44%
CCC(C)(C)n1nnnc1C(c1cc2cc(C)ccc2[nH]c1=O)N1CCCC1 (stereo unspecified),active: 14.7 µM,–
CCCCCCSc1nc(O)c(C2OC(=O)c3c2ccc(OC)c3OC)c(=O)n1-c1ccccc1 (stereo unspecified),–,inactive: -24.3%
O=c1[nH]c(CN2CCN(S(=O)(=O)c3ccccc3C(F)(F)F)CC2)nc2sc3c(c12)CCCC3,"inconclusive: 18.5 µM [inhibitor, single point]",–
O=C(CN1C(=O)S/C(=C/c2ccncc2)C1=O)N1CCOCC1,"inconclusive: 5.22 µM [inhibitor, partial curve, poor fit]",–
COc1ccccc1CNC(=O)c1ccc(S(=O)(=O)N(C)c2ccccc2)cc1,"inconclusive: 13.1 µM [inhibitor, single point]",–
O=S(=O)(c1cccc(Cl)c1Cl)N1CCN(C(=S)NCCCN2CCOCC2)CC1,"inconclusive: 20.8 µM [inhibitor, partial curve, poor fit]",–
